Results are given in words; binding and its absence hold for the method and conditions named. Binding seen in cells or lysates may run through a third protein. Some entries that bind do so weakly or less than the wild type.
Assays:
[1] = target: T1, PRDX1 (mouse (endogenous in PVECs)) (UniProt P35700); assay: co-IP
T1 sequence: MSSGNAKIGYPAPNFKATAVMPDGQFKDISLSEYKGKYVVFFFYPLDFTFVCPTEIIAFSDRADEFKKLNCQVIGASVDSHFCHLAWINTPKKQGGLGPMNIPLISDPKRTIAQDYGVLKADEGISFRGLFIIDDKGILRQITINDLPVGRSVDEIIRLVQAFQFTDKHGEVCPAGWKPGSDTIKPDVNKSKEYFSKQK

The chains behind the UniProt entries cited, without tags or fusion partners.
UniProt P08752: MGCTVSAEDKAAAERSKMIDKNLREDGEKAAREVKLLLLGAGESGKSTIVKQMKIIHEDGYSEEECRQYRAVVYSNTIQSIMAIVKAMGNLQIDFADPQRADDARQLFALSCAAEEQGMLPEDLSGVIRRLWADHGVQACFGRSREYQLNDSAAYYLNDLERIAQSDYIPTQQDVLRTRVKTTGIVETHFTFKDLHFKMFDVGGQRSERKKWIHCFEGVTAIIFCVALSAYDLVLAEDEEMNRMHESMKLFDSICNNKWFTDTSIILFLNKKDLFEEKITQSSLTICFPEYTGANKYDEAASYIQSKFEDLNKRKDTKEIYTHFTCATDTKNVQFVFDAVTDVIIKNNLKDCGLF

[2] = target: T2, TMEM100 (transmembrane protein 100), precipitated with anti-TMEM100 (mouse (endogenous in PVECs)) (UniProt Q9CQG9); assay: co-IP
T2 sequence: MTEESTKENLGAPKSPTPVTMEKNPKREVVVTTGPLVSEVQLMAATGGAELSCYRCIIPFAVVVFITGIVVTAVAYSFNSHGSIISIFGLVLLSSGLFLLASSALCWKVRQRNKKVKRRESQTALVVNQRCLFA

- binding [1]: binds
- binding [2]: binds
Substance: GNAI2 (from UniProt P08752 1-355)
